Data on 44 compounds can be found in PubChem BioAssay AID977622 (Broad Institute, 2014).

The other results are listed elsewhere or left out. Shown are side measurements of this screen, not its main read-out; they come without a call.

Assay [1] is described as follows: wild-type E. coli growth inhibition versus h38 humanized strain – h38 mutant RFP, wild-type GFP, cherry-pick, dose response (AID 977622). As to conditions: E. coli mixed culture, 24 h, total growth OD600 at 50 uM.
For assay [2], the system named is E. coli h38 humanized mutant ribosome RFP fluorescence, mixed culture, 24 h. The assay is described as above. As to conditions: h38 mutant RFP at 50 uM.

On to `COC(=O)c1c(C)oc(C)c1S(=O)(=O)NC(c1ccccc1)c1ccccc1`, for which the activity change in assay [1] was -71.9%; in assay [2] it was 41.2%.

`COc1ccc(NC(=O)Nc2cccc3c2O[C@@H](CN(C)S(=O)(=O)c2ccc(Cl)cc2)[C@@H](C)CN([C@@H](C)CO)C3=O)cc1`: the activity change is -53.5% in assay [1] and 1.47% in assay [2].

Take `Clc1ccc(-c2nc3ccc(Br)cn3c2Cc2ccsc2)cc1`: the activity change is -63.1% in assay [1] and 44.8% in assay [2].

As for `O=C(Nc1cccc(Cl)c1)N1C[C@@H]2[C@H](c3ccccc31)[C@@H](CO)N2CC1CCCCC1`, the activity change in assay [1] is -49.3%; in assay [2] it was -10.9%.

On to `CN(C)S(=O)(=O)c1cccc(NC(=O)c2ccc3c(c2)S(=O)(=O)N=C2CCCCCN23)c1`, for which the activity change in assay [1] is -1.92%.

For `COc1cc(C(=O)NCCc2c[nH]c3ccccc23)ccc1OCc1c(C)noc1C`, the activity change was -30.9% in assay [1] and -28.6% in assay [2].

As for `CN(C)CC(=O)N[C@@H]1CC[C@@H](CCNC(=O)Nc2ccc(Cl)cc2)O[C@H]1CO`, the figures for the activity change in assay [1] and in assay [2] were -0.267% and -4.53%, respectively.

`Cc1n[nH]c(C)c1S(=O)(=O)N1CCCC(C(=O)Nc2ccc(Br)cc2)C1` (centres undefined): the activity change in assay [1] was -19.3%.

Take `COc1ccc(C#Cc2ccc([C@@H]3[C@H](CO)N4CCCCN(C(=O)Nc5cccc(F)c5)C[C@@H]34)cc2)cc1`: the activity change in assay [1] is -1.06%; in assay [2], 4.98%.

Regarding `CN(c1ccccc1)S(=O)(=O)c1cccc(C(=O)OCC(=O)NCc2ccco2)c1`, the activity change in assay [1] is -37.5%.

In the case of `COc1cc(OC)nc(Oc2ccccc2C(=O)Oc2ccccc2Cl)n1`, the activity change in assay [1] was -50.2%; in assay [2], -11.4%.

`COc1ccc(CNC(=O)c2sc3nc4c(c(C(F)(F)F)c3c2N)CCC4)cc1OC`: the activity change in assay [1] was -26.9%; in assay [2], -28.2%.

For `COc1ccc(OC)c(-c2nn(-c3ccccc3)cc2C(=O)N2CCc3ccccc3C2)c1`, in assay [1], the activity change was -9.25%.

As for `CN(C)c1cccc(C(=O)Nc2ccc3nc4n(c(=O)c3c2)CCCCC4)c1`, the activity change in assay [1] was -54.8%.

Regarding `O=C(c1ccc(Cl)cc1)N1CCN(c2cccc3[nH]ccc23)CC1`, the activity change was -36.9% in assay [1] and 8.92% in assay [2].

`O=C(C[C@H]1CC[C@H]2[C@@H](COC[C@@H](O)CN2C(=O)Nc2ccc(Cl)cc2)O1)N1CCCCC1`: the activity change in assay [1] was -82%; in assay [2] it was -21.8%.

Consider `CSc1ccccc1NC(=O)c1ccccc1N(Cc1ccccc1)S(C)(=O)=O`, for which the figures for the activity change in assay [1] and in assay [2] were -27.3% and 1.89%, respectively.

Take `O=C(COC(=O)c1ccccc1O)NCCC1=CCCCC1`: the activity change was -6.59% in assay [1] and 7.23% in assay [2].

For the compound `O=C(c1cc(S(=O)(=O)N2CCOCC2)ccc1Cl)N1CCc2ccccc2C1`, the activity change in assay [1] was -18.8%.

Regarding `O=C(C[C@H]1CC[C@H]2[C@@H](COC[C@@H](O)CN2C(=O)Nc2cc(Cl)cc(Cl)c2)O1)N1CCOCC1`, the activity change in assay [1] is -28.3%; in assay [2] it was 16.3%.

On to `Cc1ccc(CSCC(=O)Nc2ccccc2F)cc1`, for which the activity change in assay [1] was -7.49%; in assay [2], -11%.

Turning to `COc1ccccc1-c1noc2ncnc(Nc3ccccc3C)c12`, in assay [1], the activity change was -3.5%.

Regarding `COc1ccc(-n2c(COc3cccc(C)c3)n[nH]c2=S)cc1`, in assay [2], the activity change is 21.9%.

`COC(=O)c1ccc2nc(-c3ccco3)c(Cc3ccc(C)cc3)n2c1`: in assay [1], the activity change is -16.6%.

`Cc1cc(CNC(=O)COc2ccc(C)c(C)c2)c2ccccc2n1`: the activity change in assay [2] is -0.731%.

For the compound `COC(=O)c1cc(S(=O)(=O)NCc2ccc3c(c2)OCO3)cn1C`, the figures for the activity change in assay [1] and in assay [2] were -22.1% and -13.9%, respectively.

Regarding `CC(C)C1C(c2ccccc2)N(C)C(c2ccccc2)CC1(O)c1ccccc1` (centres undefined), the activity change in assay [1] is -81%.

In the case of `C[C@@H]1CCCCO[C@@H](CN(C)C)[C@@H](C)CN([C@@H](C)CO)C(=O)c2cc(NC(=O)Nc3cccc4ccccc34)ccc2O1`, the results for the activity change in assay [1] and in assay [2] were -8.59% and -3.02%, respectively.

`COCCNc1cc(-c2ccccc2)nc2cc(-c3cccc(F)c3)nn12`: the activity change was 13.6% in assay [1] and -1.12% in assay [2].

Take `Cc1ccc(Nc2cc(C(=O)NCCCN3CCOCC3)c3ccccc3n2)cc1C`: the activity change in assay [1] is -11.1%; in assay [2], 19.2%.

As for `CCOC(=O)c1cc(-c2ccc(OC)cc2)n[nH]1`, the activity change was -11.8% in assay [1] and -18.4% in assay [2].

With `Cc1ccc(OCCn2c(=S)[nH]c3c(N)ncnc32)cc1`, in assay [1], the activity change was -42.1%.

`O=C(Nc1ccccc1F)N1CCCCN2[C@@H](CO)[C@H](c3ccc(-c4cccnc4)cc3)[C@@H]2C1`: the activity change in assay [1] was -0.477%; in assay [2], -6.61%.

Consider `Cc1ccc(C(=O)C2CCN(CC(=O)Nc3nc(C)cs3)CC2)cc1`, for which the activity change in assay [1] was -57.1%.

In the case of `O=C(Cc1c(Cl)cccc1Cl)Nc1cccc(S(=O)(=O)N2CCOCC2)c1`, the activity change was -35.5% in assay [1] and 9.07% in assay [2].

`COc1ccccc1CCNC(=O)c1cccc(NC(=O)CC2SC(N3CCCCC3)=NC2=O)c1` (centres undefined): the results for the activity change in assay [1] and in assay [2] were -30.1% and -6.88%, respectively.

Consider `O=C(O)c1ccc2c(c1)N(Cc1ccccc1)C(=O)c1ccccc1S2`, for which the activity change in assay [1] is -13.8%; in assay [2], -3.99%.

For `CC(C)n1c(C(=O)OCC(=O)NCc2ccc3c(c2)OCO3)cc2sccc21`, the activity change is -62.9% in assay [1] and -9.86% in assay [2].

As to `Cc1cc2c(sc3c(C)ccc(C)c32)c(C)n1`, the figures for the activity change in assay [1] and in assay [2] were -55.6% and -10.5%, respectively.

On to `Cc1ccc(Cl)cc1N1CCN(C(=O)c2ccc3nc[nH]c3c2)CC1`, for which the activity change in assay [1] was -20.8%.

`Cc1ccc(-c2ccc3c(c2)O[C@@H](CN(C)Cc2cccc(C(=O)O)c2)[C@H](C)CN([C@@H](C)CO)S3(=O)=O)cc1`: the activity change in assay [1] is -64.4%; in assay [2], 11.7%.

On to `CCOc1ccc(NS(=O)(=O)c2ccc(C(=O)N3CCN(c4ncccn4)CC3)cc2)cc1`, for which the activity change was -32.2% in assay [1] and 3.35% in assay [2].

Regarding `Cc1cccc(NC(=O)c2n[nH]c([N+](=O)[O-])c2Br)c1C`, the activity change in assay [1] is -73.3%; in assay [2], -41.2%.

On to `C[C@@H]1CCCCO[C@@H](CN(C)C(=O)c2ccccc2)[C@H](C)CN([C@@H](C)CO)C(=O)c2cc(NC(=O)Cc3ccccc3)ccc2O1`, for which the activity change in assay [1] is 2.71%; in assay [2] it was 27.8%.
